Assay results as given in article PMC4064043.

By UniProt entry, the sequences of proteins in these tests, tags left out. Where a name states a change or a piece, a line headed by the entry shows the natural chain unless it says otherwise.
UniProt Q0JA29: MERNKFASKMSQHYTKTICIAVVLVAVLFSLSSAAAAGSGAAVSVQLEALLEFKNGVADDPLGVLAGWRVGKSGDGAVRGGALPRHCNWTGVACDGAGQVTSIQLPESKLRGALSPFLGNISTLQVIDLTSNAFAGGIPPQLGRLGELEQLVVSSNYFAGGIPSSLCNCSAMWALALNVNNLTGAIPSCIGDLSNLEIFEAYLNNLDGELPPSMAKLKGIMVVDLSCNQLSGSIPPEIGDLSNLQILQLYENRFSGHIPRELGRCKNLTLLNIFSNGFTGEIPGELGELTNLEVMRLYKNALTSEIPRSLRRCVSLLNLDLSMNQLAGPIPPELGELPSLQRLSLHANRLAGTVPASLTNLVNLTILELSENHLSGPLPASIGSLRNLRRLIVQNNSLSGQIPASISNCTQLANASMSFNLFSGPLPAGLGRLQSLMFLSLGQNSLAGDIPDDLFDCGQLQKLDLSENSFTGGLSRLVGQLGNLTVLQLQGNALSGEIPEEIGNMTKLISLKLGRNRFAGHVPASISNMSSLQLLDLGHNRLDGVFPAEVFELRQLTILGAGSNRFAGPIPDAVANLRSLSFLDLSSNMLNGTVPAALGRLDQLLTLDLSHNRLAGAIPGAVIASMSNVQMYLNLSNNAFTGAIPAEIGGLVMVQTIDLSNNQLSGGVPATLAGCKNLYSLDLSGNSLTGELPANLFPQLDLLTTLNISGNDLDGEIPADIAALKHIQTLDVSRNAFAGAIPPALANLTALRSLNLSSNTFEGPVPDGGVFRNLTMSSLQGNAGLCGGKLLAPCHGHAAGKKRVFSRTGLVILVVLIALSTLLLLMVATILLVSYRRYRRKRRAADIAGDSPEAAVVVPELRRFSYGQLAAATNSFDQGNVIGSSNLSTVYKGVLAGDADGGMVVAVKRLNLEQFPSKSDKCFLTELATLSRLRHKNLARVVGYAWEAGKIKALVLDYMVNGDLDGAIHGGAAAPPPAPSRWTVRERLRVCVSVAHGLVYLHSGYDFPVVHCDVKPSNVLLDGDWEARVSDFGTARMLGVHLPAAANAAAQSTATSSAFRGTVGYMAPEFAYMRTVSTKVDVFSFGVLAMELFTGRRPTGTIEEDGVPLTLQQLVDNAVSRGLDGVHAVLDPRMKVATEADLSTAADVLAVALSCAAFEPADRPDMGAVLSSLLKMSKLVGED

Experiments:
[1] = target: intracellular domain of OsFLS2 (rice) (UniProt Q0JA29); assay: two-hybrid; Matchmaker LexA two-hybrid system (Clontech); yeast pEGY48/p8op-lacZ co-transformed with BD (LexA) and AD (B42, HA) vectors; blue colour indicates interaction
[2] = target: Myc–XA21 (rice); assay: co-IP; Myc–XA21 complex immunoprecipitated with agarose-conjugated anti-Myc antibody from leaves of cMyc–Xa21 rice plants, no treatment; Kitaake leaves as negative control; blots with anti-Myc and anti-OsSERK2

| binding [1] | binding [2] | Molecule |
| --- | --- | --- |
| binds |  | intracellular domain of OsSERK2 (from UniProt Q7XV05) (domain or fragment) |
|  | binds | OsSERK2 (rice somatic embryogenesis receptor kinase 2) (receptor, UniProt Q7XV05 32-628) NTEGDALYSLRQSLKDANNVLQSWDPTLVNPCTWFHVTCNPDNSVIRVDLGNAQLSGALVPQLGQLKNLQYLELYSNNISGTIPNELGNLTNLVSLDLYLNNFTGFIPETLGQLYKLRFLRLNNNSLSGSIPKSLTNITTLQVLDLSNNNLSGEVPSTGSFSLFTPISFANNKDLCGPGTTKPCPGAPPFSPPPPFNPPTPTVSQGDSKTGAIAGGVAAAAALLFAVPAIGFAWWRRRKPEEHFFDVPAEEDPEVHLGQLKRFSLRELQVATDNFSNKNILGRGGFGKVYKGRLADGSLVAVKRLKEERTPGGELQFQTEVEMISMAVHRNLLRLRGFCMTPTERLLVYPYMANGSVASRLRERQPNDPPLEWQTRTRIALGSARGLSYLHDHCDPKIIHRDVKAANILLDEDFEAVVGDFGLAKLMDYKDTHVTTAVRGTIGHIAPEYLSTGKSSEKTDVFGYGIMLLELITGQRAFDLARLANDDDVMLLDWVKGLLKEKKVEMLVDPDLQSGFVEHEVESLIQVALLCTQGSPMDRPKMSEVVRMLEGDGLAERWEEWQKVEVVRQEAELAPRHNDWIVDSTYNLRAMELSGPR |

These are yes or no findings as the source states them, for the method shown. A result given as binding can be weak or reduced; the word gives no strength. For some assays here: Binding seen in cells or lysates may run through a third protein.
